From paper PMC11425221
No constants are given. Whether binding was seen depends on the method and setting. In cells and extracts the contact can be indirect. Some binding calls cover weakened binding; strength is not graded here. For some assays here: Sequences can lack the tags named with a protein.

The chains behind the UniProt entries cited, without tags or fusion partners. Where a name states a change or a piece, a line headed by the entry shows the natural chain unless it says otherwise. Residues count along the entry.
UniProt P31749: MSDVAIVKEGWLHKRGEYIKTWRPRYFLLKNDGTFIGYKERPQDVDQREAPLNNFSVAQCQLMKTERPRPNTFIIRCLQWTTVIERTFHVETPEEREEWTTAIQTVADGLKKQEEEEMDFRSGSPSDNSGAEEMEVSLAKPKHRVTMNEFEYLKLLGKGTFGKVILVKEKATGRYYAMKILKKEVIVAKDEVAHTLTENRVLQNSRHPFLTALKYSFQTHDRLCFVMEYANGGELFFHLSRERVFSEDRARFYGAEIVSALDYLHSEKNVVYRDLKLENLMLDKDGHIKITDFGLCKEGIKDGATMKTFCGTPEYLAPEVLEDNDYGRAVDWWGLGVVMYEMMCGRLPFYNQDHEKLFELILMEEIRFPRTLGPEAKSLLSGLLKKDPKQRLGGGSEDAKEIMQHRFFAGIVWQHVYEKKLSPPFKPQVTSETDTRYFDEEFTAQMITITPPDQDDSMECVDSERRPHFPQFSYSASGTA
AKT1 kinase domain: residues 150-408 of P31749

How the values were obtained:
[1] = molecular target: T1, IRF3 (endogenous, R-MCF7 cells) (human (endogenous in R-MCF7)) (UniProt Q14653); test: co-IP; endogenous proteins from R-MCF7 cells treated with 2 µg/mL HT-DNA (6 or 12 h); with or without 2 µM MK2206 pretreatment (Figure 4C, 4I) or siAKT1 knockdown (Figure 4H)
T1 sequence: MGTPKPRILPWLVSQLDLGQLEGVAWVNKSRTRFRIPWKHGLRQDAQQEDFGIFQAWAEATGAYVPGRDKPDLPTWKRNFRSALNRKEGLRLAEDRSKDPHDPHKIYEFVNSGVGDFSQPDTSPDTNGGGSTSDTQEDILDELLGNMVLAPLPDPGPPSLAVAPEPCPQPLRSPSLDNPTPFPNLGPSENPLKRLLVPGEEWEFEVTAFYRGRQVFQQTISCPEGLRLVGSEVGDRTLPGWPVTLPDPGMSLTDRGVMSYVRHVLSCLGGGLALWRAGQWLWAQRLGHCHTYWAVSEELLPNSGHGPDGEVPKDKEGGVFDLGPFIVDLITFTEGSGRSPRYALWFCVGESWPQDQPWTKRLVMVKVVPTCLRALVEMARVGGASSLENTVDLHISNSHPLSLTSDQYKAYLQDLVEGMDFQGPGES

[2] = molecular target: AKT1 (endogenous, R-MCF7 cells) (human (endogenous in R-MCF7)) (UniProt P31749); test: as above
[3] = molecular target: T2, Myc-TBK1 (UniProt Q9UHD2); test: co-IP; HEK293T cells cotransfected for 48 h with Myc-TBK1, GFP-IRF3, FLAG-STING and AKT1-MYR-HA or AKT1-DN-HA; Myc-TBK1 immunoprecipitated with Myc antibody
T2 sequence: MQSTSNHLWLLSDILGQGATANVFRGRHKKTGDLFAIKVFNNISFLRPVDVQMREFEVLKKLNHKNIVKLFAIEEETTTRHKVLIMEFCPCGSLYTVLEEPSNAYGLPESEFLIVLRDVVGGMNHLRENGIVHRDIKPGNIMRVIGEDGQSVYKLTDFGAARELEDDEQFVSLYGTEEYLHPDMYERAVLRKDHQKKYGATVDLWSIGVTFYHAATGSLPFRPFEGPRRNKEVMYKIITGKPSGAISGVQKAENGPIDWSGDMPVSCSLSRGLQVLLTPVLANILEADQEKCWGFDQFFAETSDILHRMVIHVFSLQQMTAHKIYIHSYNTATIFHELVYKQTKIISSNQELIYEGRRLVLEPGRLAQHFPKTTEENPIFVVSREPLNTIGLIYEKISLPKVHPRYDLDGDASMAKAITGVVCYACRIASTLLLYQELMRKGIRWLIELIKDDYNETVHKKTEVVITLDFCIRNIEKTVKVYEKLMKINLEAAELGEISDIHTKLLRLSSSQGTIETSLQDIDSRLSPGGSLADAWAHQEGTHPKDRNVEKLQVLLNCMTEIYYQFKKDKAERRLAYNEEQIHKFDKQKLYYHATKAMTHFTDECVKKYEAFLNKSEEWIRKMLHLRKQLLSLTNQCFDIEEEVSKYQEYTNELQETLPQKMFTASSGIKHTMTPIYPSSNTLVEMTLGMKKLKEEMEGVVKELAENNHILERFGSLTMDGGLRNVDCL

[4] = molecular target: AKT1 kinase domain (UniProt P31749); test: co-IP; domain mapping with transfected tagged constructs (SFB-AKT1 and AKT1 truncations; Myc-TBK1 kinase domain and TBK1 truncations); in Figure 4F HEK-293T cells, with or without 2 µM MK2206 for 6 h, SFB-AKT1 immunoprecipitated with FLAG antibody
[5] = molecular target: SFB-tagged full-length (FL) AKT1 (UniProt P31749); test: as above

B1: TBK1 (endogenous, R-MCF7 cells) (enzyme, UniProt Q9UHD2 1-729)
chain: MQSTSNHLWLLSDILGQGATANVFRGRHKKTGDLFAIKVFNNISFLRPVDVQMREFEVLKKLNHKNIVKLFAIEEETTTRHKVLIMEFCPCGSLYTVLEEPSNAYGLPESEFLIVLRDVVGGMNHLRENGIVHRDIKPGNIMRVIGEDGQSVYKLTDFGAARELEDDEQFVSLYGTEEYLHPDMYERAVLRKDHQKKYGATVDLWSIGVTFYHAATGSLPFRPFEGPRRNKEVMYKIITGKPSGAISGVQKAENGPIDWSGDMPVSCSLSRGLQVLLTPVLANILEADQEKCWGFDQFFAETSDILHRMVIHVFSLQQMTAHKIYIHSYNTATIFHELVYKQTKIISSNQELIYEGRRLVLEPGRLAQHFPKTTEENPIFVVSREPLNTIGLIYEKISLPKVHPRYDLDGDASMAKAITGVVCYACRIASTLLLYQELMRKGIRWLIELIKDDYNETVHKKTEVVITLDFCIRNIEKTVKVYEKLMKINLEAAELGEISDIHTKLLRLSSSQGTIETSLQDIDSRLSPGGSLADAWAHQEGTHPKDRNVEKLQVLLNCMTEIYYQFKKDKAERRLAYNEEQIHKFDKQKLYYHATKAMTHFTDECVKKYEAFLNKSEEWIRKMLHLRKQLLSLTNQCFDIEEEVSKYQEYTNELQETLPQKMFTASSGIKHTMTPIYPSSNTLVEMTLGMKKLKEEMEGVVKELAENNHILERFGSLTMDGGLRNVDCL
In the case of B1, the binding [1] is reported as “binds” and the binding [2] is reported as “binds”.

B2: GFP-IRF3 (protein, UniProt Q14653 1-427)
chain: MGTPKPRILPWLVSQLDLGQLEGVAWVNKSRTRFRIPWKHGLRQDAQQEDFGIFQAWAEATGAYVPGRDKPDLPTWKRNFRSALNRKEGLRLAEDRSKDPHDPHKIYEFVNSGVGDFSQPDTSPDTNGGGSTSDTQEDILDELLGNMVLAPLPDPGPPSLAVAPEPCPQPLRSPSLDNPTPFPNLGPSENPLKRLLVPGEEWEFEVTAFYRGRQVFQQTISCPEGLRLVGSEVGDRTLPGWPVTLPDPGMSLTDRGVMSYVRHVLSCLGGGLALWRAGQWLWAQRLGHCHTYWAVSEELLPNSGHGPDGEVPKDKEGGVFDLGPFIVDLITFTEGSGRSPRYALWFCVGESWPQDQPWTKRLVMVKVVPTCLRALVEMARVGGASSLENTVDLHISNSHPLSLTSDQYKAYLQDLVEGMDFQGPGES
For B2, the binding [3] was “binds”.

B3: Myc-tagged TBK1 kinase domain (1-299) (domain or fragment, UniProt Q9UHD2 1-299)
chain: MQSTSNHLWLLSDILGQGATANVFRGRHKKTGDLFAIKVFNNISFLRPVDVQMREFEVLKKLNHKNIVKLFAIEEETTTRHKVLIMEFCPCGSLYTVLEEPSNAYGLPESEFLIVLRDVVGGMNHLRENGIVHRDIKPGNIMRVIGEDGQSVYKLTDFGAARELEDDEQFVSLYGTEEYLHPDMYERAVLRKDHQKKYGATVDLWSIGVTFYHAATGSLPFRPFEGPRRNKEVMYKIITGKPSGAISGVQKAENGPIDWSGDMPVSCSLSRGLQVLLTPVLANILEADQEKCWGFDQFF
With B3 the binding [4] was “binds” and the binding [5] was “binds”.
